The text below walks through data of article PMC8027267.

Sequences of proteins named here, by UniProt entry; tags and fusion partners are left off.
UniProt P35222: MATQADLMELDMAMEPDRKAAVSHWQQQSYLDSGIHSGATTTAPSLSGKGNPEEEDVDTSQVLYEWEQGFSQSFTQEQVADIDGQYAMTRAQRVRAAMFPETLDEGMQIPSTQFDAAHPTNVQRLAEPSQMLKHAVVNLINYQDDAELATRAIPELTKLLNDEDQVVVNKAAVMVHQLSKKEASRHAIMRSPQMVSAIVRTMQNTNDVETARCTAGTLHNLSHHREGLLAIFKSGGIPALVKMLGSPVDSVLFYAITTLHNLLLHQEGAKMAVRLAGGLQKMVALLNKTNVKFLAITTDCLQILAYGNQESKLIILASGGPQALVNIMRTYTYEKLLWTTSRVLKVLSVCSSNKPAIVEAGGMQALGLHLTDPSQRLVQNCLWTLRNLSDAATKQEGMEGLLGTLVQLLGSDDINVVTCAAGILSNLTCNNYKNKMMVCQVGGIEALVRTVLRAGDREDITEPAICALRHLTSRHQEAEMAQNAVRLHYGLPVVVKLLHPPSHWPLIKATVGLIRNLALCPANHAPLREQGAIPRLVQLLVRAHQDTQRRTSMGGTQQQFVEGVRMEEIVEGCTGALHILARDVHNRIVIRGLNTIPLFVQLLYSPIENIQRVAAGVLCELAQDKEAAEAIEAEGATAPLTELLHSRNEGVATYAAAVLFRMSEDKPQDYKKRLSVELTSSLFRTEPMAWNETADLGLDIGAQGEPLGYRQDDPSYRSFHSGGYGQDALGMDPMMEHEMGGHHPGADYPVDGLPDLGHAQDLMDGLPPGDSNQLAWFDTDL
UniProt Q96RD7: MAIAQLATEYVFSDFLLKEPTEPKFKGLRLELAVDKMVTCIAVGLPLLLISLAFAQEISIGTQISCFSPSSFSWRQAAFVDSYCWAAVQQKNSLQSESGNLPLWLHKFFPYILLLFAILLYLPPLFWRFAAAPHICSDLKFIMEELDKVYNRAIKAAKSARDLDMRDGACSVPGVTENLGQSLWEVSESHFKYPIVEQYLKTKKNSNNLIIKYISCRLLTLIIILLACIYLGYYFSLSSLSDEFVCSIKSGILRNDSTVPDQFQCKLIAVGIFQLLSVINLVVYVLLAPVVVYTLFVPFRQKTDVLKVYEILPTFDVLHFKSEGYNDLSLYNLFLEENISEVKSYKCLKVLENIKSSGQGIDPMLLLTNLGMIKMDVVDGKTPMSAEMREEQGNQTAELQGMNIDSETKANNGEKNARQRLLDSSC

Results are given in words; binding and its absence hold for the method and conditions named. Binding seen in cells or lysates may run through a third protein. Some results given as binding are weak or reduced against the parent protein; the word gives no strength.

The target in experiment [1] is β-catenin, endogenous in 131/4-5B1 human melanoma cells (human (endogenous in 131/4-5B1)) (UniProt P35222). The experiment is described as follows: co-IP; 1 mg lysate of 131/4-5B1 cells (50 mM Tris-HCl pH 7.4, 150 mM NaCl, 1% Triton X-100); IP with anti-PANX1 polyclonal or anti-β-catenin monoclonal antibody and protein A-Sepharose overnight at 4 °C; blots for PANX1 and β-catenin; rabbit or mouse IgG as controls.

Experiment [2] has as its target Pannexin 1 (PANX1), endogenous in human melanoma cells (human (endogenous in 131/4-5B1, A375-P and A375-MA2)) (UniProt Q96RD7). The experiment is described as above.

With “Pannexin 1 (PANX1), endogenous in human melanoma cells (from UniProt Q96RD7 1-426)”, in experiment [1], the binding entry is “binds”.
For “β-catenin, endogenous in 131/4-5B1 human melanoma cells (from UniProt P35222 1-781)”, in experiment [2], the binding result is “binds”.
